The record followed here is patent US20250213647A1, “CHEMOKINE RECEPTORS AND ALPHA1 ADRENERGIC RECEPTORS/VASOPRESSIN RECEPTORS 1A HETEROMERS AS DRUG TARGETS FOR DISEASE” (UNIVERSITY OF SOUTH FLORIDA, priority 2022, published 2025).

For this data set, the system named is leukocyte infiltration into dorsal air pouches. As to the kind of experiment: Murine air pouch model, leukocyte infiltration. The class given is in vivo, C57BL/6 mice. Conditions: 24 hours post injection, 2.5 mg/kg LPS; for CD45 positive cells identified as granulocytes / CD45 positive cells identified as mononuclear cells: 6 μg CCL2 or 2 μg CXCL12; for infiltrated air pouch cells that expressed leukocyte common antigen (CD45): 6 μg CCL2 or 2 μg CXCL12 into the air pouch.

Regarding “CCL2: chemokine (C-C motif) ligand 2, cognate agonist of CCR2, CCR3 and CCR5”, the “CD45 positive cells identified as granulocytes” value came out at 21±6%, the “CD45 positive cells identified as mononuclear cells” value came out at 48±3% and the “infiltrated air pouch cells that expressed leukocyte common antigen (CD45)” value came to 82±10%.

Regarding “CXCL12: chemokine (C-X-C motif) ligand 12, CXCR4 agonist”, the “CD45 positive cells identified as granulocytes” value is reported as 19±7%, the “CD45 positive cells identified as mononuclear cells” value is given as 37±3% and the “infiltrated air pouch cells that expressed leukocyte common antigen (CD45)” value is 83±10%.
